# Measurements taken from PubChem BioAssay AID2685 (National Center for Advancing Translational Sciences (NCATS), 2010).
# About 2,100 (0.66%) of roughly 320,000 compounds were called active. The inconclusive results got no clear call from the source; some entries with a clear call stand among them for comparison. Calls follow the shape of the dose curve; as a rule, active = well fitted inhibition curve with a large enough effect in the signal ratio, with a control signal flat (not every such curve was filed as active); inconclusive = small, poorly fitted or top-dose-only effect, or effect the other way, or a change in a side signal; inactive = flat fitted curve, though single readings scatter; the % refers to the signal ratio. Potencies of inconclusive entries are doubtful fits and often do not repeat.
# Assay: qHTS Assay for Lipid Storage Modulators in Drosophila S3 Cells
# Settings: BODIPY lipid droplet fluorescence, 18-24 h, cells fed with added oleic acid; lipid storage change, negative = inhibition: at 46.1 µM (top of the series) unless noted
# In short: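 Drosophila S3 cells got compounds at several concentrations plus oleic acid (400 uM solution). Laser-scanning cytometry with 488 nm excitation read lipid droplets at 500-530 nm and cells at 575-640 nm. Percent activity was relative to 20 uM Triacsin C.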
# % is scaled to controls: 0 for no effect and ±100 for the full control effect; potency is read from the fitted curve at half-maximal effect.
SMILES,"lipid storage change, negative = inhibition",Potency
Cc1ccc(-n2nnnc2SCC(=O)c2c(N)n(CC(C)C)c(=O)n(C)c2=O)cc1,inconclusive: 22.8%,–
COCc1nnc(NC(=O)CS(=O)(=O)c2ccc(C)cc2)s1,inconclusive: -35.2%,–
Cc1cc(O)ccc1N=Cc1c(C(F)(F)F)[nH][nH]c1=O,inconclusive: -69.9%,–
COc1cccc(NC(=S)N2CCC(NC(=O)C3CCCCC3)CC2)c1,–,"inconclusive: 29.1 µM [falling, single point]"
Cc1cccc(NNC(=O)C(=O)NNc2cccc(C)c2)c1,inconclusive: 7.26%,–
COc1cc(/C=C/C(=O)NCc2ccccn2)cc(OC)c1OC,inconclusive: 28.9%,–
COC(=O)c1ccc(NS(=O)(=O)N(C)C)cc1,–,"inconclusive: 4.61 µM [falling, full curve, poor fit]"
O=C(Nc1nc2ccccc2s1)c1cccc(S(=O)(=O)N2CCc3ccccc32)c1,–,"inconclusive: 5.17 µM [activator, partial curve]"
Cc1ccc(NC(=O)CC(=O)Nc2ccc(C)c(C)c2)cc1C,–,"inconclusive: 0.731 µM [activator, partial curve, poor fit]"
CC1CCCCC1NC(=O)CCNS(=O)(=O)c1ccc(Cl)cc1 (stereo not given),–,"inconclusive: 29.1 µM [activator, single point]"
COc1cccc(CC2(CO)CCCN(Cc3cn[nH]c3-c3ccccc3)C2)c1 (stereo not given),inconclusive: -22.8%,–
CCNC(=S)N/N=C(\C)c1ccc2c(c1)OCCO2,inconclusive: 24.8%,–
CC(OC(=O)CCCN=C1NS(=O)(=O)c2ccccc21)C(=O)Nc1ccccc1[N+](=O)[O-] (stereo not given),–,"inconclusive: 29.1 µM [falling, single point]"
COCCN(C(=O)COC(=O)C1CC1)c1c(N)n(Cc2ccccc2)c(=O)[nH]c1=O,inconclusive: 44.8%,–
CC(=O)NC1C(=O)N(C)c2ccc(Br)cc21 (stereo not given),inconclusive: -0.699%,–
CNc1c(NS(=O)(=O)c2ccc(F)c(Cl)c2)c(=O)oc2ccccc12,inconclusive: -100%,–
COc1ccc([N+](=O)[O-])cc1N(CC(=O)Nc1ccccc1C(=O)NC(C)C)S(C)(=O)=O,–,"inconclusive: 0.259 µM [falling, full curve]"
CC1(C)SC(=Nc2ccccc2)N(S(=O)(=O)c2ccccc2)C1=O,inconclusive: -14.5%,–
CCOc1nc(Nc2ccc(OC)c(Cl)c2)nc(OCC)n1,–,"inconclusive: 3.26 µM [rising, full curve]"
COc1ccc(-n2c(NC(=O)c3ccco3)c(C#N)c3nc4ccccc4nc32)cc1,inconclusive: -21.8%,–
CCn1c(SCC(=O)O)nnc1-c1ccc(S(=O)(=O)N2CCCC2)cc1,–,"inconclusive: 4.61 µM [falling, single point]"
CC(=O)Nc1ccc(S(=O)(=O)N2CCN(c3nc(NC4CCCC4)c4ccccc4n3)CC2)cc1,inconclusive: 0.347%,–
COc1ccccc1OCCNC(=O)c1cccc(S(=O)(=O)N2CCN(C)CC2)c1,inconclusive: 31.7%,–
c1csc(-c2nc(-c3ccncc3)no2)c1,inconclusive: 26.9%,–
C/C(=N\OCC(=O)NCC(F)(F)F)c1cc2ccccc2o1,–,"inconclusive: 0.0461 µM [activator, partial curve]"

SMILES,"lipid storage change, negative = inhibition",Potency
O=C(N/N=C/c1ccccc1[N+](=O)[O-])c1ccncc1,inconclusive: -27%,–
O=C(CSc1nc(-c2ccco2)cc(C(F)(F)F)n1)Nc1ccc(C(=O)N2CCCCC2)cc1,–,"inconclusive: 2.91 µM [cytotoxic, partial curve]"
N#Cc1ccc(C(=O)OCC(=O)NC(=O)NC2CCCCC2)cc1,–,"inconclusive: 0.103 µM [activator, full curve, poor fit]"
COc1ccc(-n2ncc3c(NCc4cccs4)ncnc32)cc1,–,"inconclusive: 3.66 µM [activator, partial curve]"
CCOC(=O)c1ccc(N)cc1,inconclusive: 19.2%,–
CC1(C)CC(=O)CC(=Nc2ccc3[nH]c(=O)[nH]c3c2)C1,–,"inconclusive: 2.06 µM [falling, partial curve]"
COc1ccc(C(=O)NCC(=O)NCCc2c[nH]c3ccccc23)cc1OC,inactive: 5.27%,–
COc1cccc(Nc2nc(-c3cccc(N4C(=O)c5ccccc5C4=O)c3)cs2)c1,inconclusive: -18.1%,–
N#CCCN(C(=O)COC(=O)CNC(=O)c1ccc(-c2ccccc2)cc1)c1ccc(F)cc1,inconclusive,–
O=C1C(=O)N(CCCN2CCOCC2)C(c2ccc([N+](=O)[O-])cc2)/C1=C(/O)c1ccc2c(c1)OCO2 (stereo not given),–,"inconclusive: 29.1 µM [activator, single point]"
CCOC(=O)N1CCN(C(=O)c2ccc3nc(C)sc3c2)CC1,inconclusive: 2.9%,–
CC1CCC2C(C1)OS(=O)(=O)NC2(C)C (stereo not given),inconclusive: 52.8%,–
Cc1ccc(Oc2ccc(C(F)(F)F)cc2[N+](=O)[O-])c([N+](=O)[O-])n1,inconclusive: 20.9%,–
Clc1ccc(COn2c(-c3ccccc3)nc3ccccc32)cc1,–,"inconclusive: 29.1 µM [falling, single point]"
CCOc1cccc(C(=O)Nc2nc(-c3ccc(S(=O)(=O)N4CCOCC4)cc3)cs2)c1,–,"inconclusive: 0.58 µM [rising, single point]"
Cc1ccc(S(=O)(=O)N2CCOCC2)cc1C(=O)c1nccn1C,inconclusive: -46.2%,–
CCOc1ccc(NC(=S)Nc2ccccc2C2(C)CC2)cc1,inconclusive: 13.3%,–
Cc1occc1C(=O)NC(C)c1ccc2c(c1)OCO2 (stereo not given),inconclusive: 48.1%,–
O=C1Nc2ccccc2OC1CC(=O)N1CCOCC1 (stereo not given),inconclusive: -12.3%,–
CCN(CC)C(=O)C1CCCN(C/C=C/c2ccccc2)C1 (stereo not given),inconclusive: 18.9%,–
Cn1ccnc1C1CCCCN1Cc1nc(Cc2cccc(C(F)(F)F)c2)no1 (stereo not given),inconclusive: 8.83%,–
O=C(Cn1c(=O)[nH]c2ccccc2c1=O)Nc1ccc2c(c1)OCCO2,inconclusive: -16.6%,–
CCC1CCC(C(=O)NC(C(=O)NCCc2ccc(S(N)(=O)=O)cc2)C(C)C)CC1 (stereo not given),inconclusive: 33.7%,–
CC1CCN(Cc2ccc(-c3nn[nH]n3)cc2)CC1,inconclusive: -11.6%,–
Cc1ccc(-n2nc3c(N4CCC(C(=O)NCc5ccccc5C)CC4)nnc(C)c3c2C)cc1,inconclusive: -75.3%,–

SMILES,"lipid storage change, negative = inhibition",Potency
CCN(CC)c1ccc(C=N/C(C#N)=C(\N)C#N)cc1,inconclusive: -24.4%,–
COc1ccc(OC)c(Nc2nc(=O)c3cccnc3s2)c1,–,"inconclusive: 23.1 µM [falling, partial curve, poor fit]"
Cc1nc2ccccc2c(=O)n1/N=C1\C(=O)N(C)c2ccccc21,inconclusive: -3.5%,–
CC1(C)Oc2ccc3ccc(=O)oc3c2/C(=C/N)C1=O,–,"inconclusive: 7.31 µM [activator, partial curve]"
Cc1ccc(OCCC(=O)OCC(=O)Nc2ccc3c(c2)OCO3)cc1,inconclusive,–
CCN1CCN(CCNC(=O)c2ccc3c(c2)NC(=O)/C(=C\c2ccc(OC)c(OC)c2)S3)CC1,inconclusive: -21.8%,–
Cc1cc(C)c(OCC(=O)OCC(=O)NC2CCCCCCC2)c(C)c1,–,active: 1.84 µM
Cc1ccccc1-n1nc2c(c1NC(=O)/C=C\c1ccc3c(c1)OCO3)CSC2,–,"inconclusive: 0.461 µM [activator, partial curve, poor fit]"
COC(=O)c1cc2sc(Cl)cc2n1Cc1nc(-c2ccccc2)oc1C,inconclusive: 3.66%,–
CC(=O)NC(CCS(C)(=O)=O)C(=O)Nc1cccc(C(C)=O)c1 (stereo not given),–,"inconclusive: 23.1 µM [cytotoxic, partial curve]"
OC(CCCN1CCCCC1)(c1ccccc1)c1ccccc1,inconclusive: -12.2%,–
Cc1ccccc1NC(=O)CN(C)S(=O)(=O)c1ccc2c(c1)n(C)c(=O)c(=O)n2C,–,active: 18.4 µM
CCN(CC)S(=O)(=O)c1ccc(C(=O)NC(C)(C)C)cc1,inconclusive: 32.1%,–
COc1ccccc1CNC(=O)C(=O)NCC1OCCCN1S(=O)(=O)c1cccs1 (stereo not given),inconclusive: 12.7%,–
O=C(CN1C(=O)CSc2ccc(S(=O)(=O)N3CCOCC3)cc21)NCc1ccc(F)cc1,–,"inconclusive: 18.4 µM [activator, partial curve]"
NC(=S)C1COc2ccccc2O1 (stereo not given),–,"inconclusive: 2.91 µM [falling, full curve]"
CC(Cc1cccs1)N(Cc1ccc(Cl)cc1)C(=O)c1ccncc1 (stereo not given),inconclusive: -25%,–
O=C(CCl)N(Cc1ccccc1)c1ccccc1,–,"inconclusive: 0.103 µM [falling, full curve, poor fit]"
CCOc1ccc(-c2c(C(=O)N/N=C/c3ccc(C)s3)nnn2-c2nonc2N)cc1,–,"inconclusive: 0.116 µM [falling, full curve, poor fit]"
CC1(C)CN(c2ccccc2)N(C(=O)c2ccc(F)cc2)C1=O,–,"inconclusive: 0.184 µM [activator, full curve, poor fit]"
CC(C)N(CC#CC(O)(c1ccccc1)c1ccccc1)CCO,inconclusive: -10.2%,–
CC1=C(C)C(O)N(Cc2ccccc2)C1=O (stereo not given),–,"inconclusive: 6.51 µM [activator, single point]"
COc1ccc(NC(=O)CCNS(=O)(=O)c2ccc3c(c2)CC(C)N3C(C)=O)cc1 (stereo not given),–,"inconclusive: 29.1 µM [activator, single point]"
Cc1ccc(C(=O)Nc2cc3ccccc3oc2=O)cc1,inconclusive: 72.1%,–
Cc1ccc2cc(CN(CC3CCCO3)S(=O)(=O)c3c(C)ccc4nsnc34)c(=O)[nH]c2c1 (stereo not given),inconclusive: -30.2%,–

# Exported bar-delimited: part of the list above.
SMILES | lipid storage change, negative = inhibition | Potency
COc1cc(/C=C/C(=O)NCc2ccccn2)cc(OC)c1OC | inconclusive: 28.9% | –
CC1CCCCC1NC(=O)CCNS(=O)(=O)c1ccc(Cl)cc1 (stereo not given) | – | inconclusive: 29.1 µM [activator, single point]
CC1(C)SC(=Nc2ccccc2)N(S(=O)(=O)c2ccccc2)C1=O | inconclusive: -14.5% | –
CCOc1nc(Nc2ccc(OC)c(Cl)c2)nc(OCC)n1 | – | inconclusive: 3.26 µM [rising, full curve]
CCn1c(SCC(=O)O)nnc1-c1ccc(S(=O)(=O)N2CCCC2)cc1 | – | inconclusive: 4.61 µM [falling, single point]
COc1ccccc1OCCNC(=O)c1cccc(S(=O)(=O)N2CCN(C)CC2)c1 | inconclusive: 31.7% | –
C/C(=N\OCC(=O)NCC(F)(F)F)c1cc2ccccc2o1 | – | inconclusive: 0.0461 µM [activator, partial curve]
COc1ccc(C(=O)NCC(=O)NCCc2c[nH]c3ccccc23)cc1OC | inactive: 5.27% | –
O=C1C(=O)N(CCCN2CCOCC2)C(c2ccc([N+](=O)[O-])cc2)/C1=C(/O)c1ccc2c(c1)OCO2 (stereo not given) | – | inconclusive: 29.1 µM [activator, single point]
CC1CCC2C(C1)OS(=O)(=O)NC2(C)C (stereo not given) | inconclusive: 52.8% | –
Clc1ccc(COn2c(-c3ccccc3)nc3ccccc32)cc1 | – | inconclusive: 29.1 µM [falling, single point]
Cc1occc1C(=O)NC(C)c1ccc2c(c1)OCO2 (stereo not given) | inconclusive: 48.1% | –
O=C(Cn1c(=O)[nH]c2ccccc2c1=O)Nc1ccc2c(c1)OCCO2 | inconclusive: -16.6% | –
CC1CCN(Cc2ccc(-c3nn[nH]n3)cc2)CC1 | inconclusive: -11.6% | –
Cc1nc2ccccc2c(=O)n1/N=C1\C(=O)N(C)c2ccccc21 | inconclusive: -3.5% | –
CCOc1ccc(-c2c(C(=O)N/N=C/c3ccc(C)s3)nnn2-c2nonc2N)cc1 | – | inconclusive: 0.116 µM [falling, full curve, poor fit]
Cc1ccc2cc(CN(CC3CCCO3)S(=O)(=O)c3c(C)ccc4nsnc34)c(=O)[nH]c2c1 (stereo not given) | inconclusive: -30.2% | –
